Laboratory results: PubChem BioAssay AID651660 (Broad Institute, 2012)
Where “and” joins values, the source holds several entries; their conditions need not be identical. Identical values can stand only once. Screen size: about 1,900 compounds; about 15 (0.8%) were called active.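 How the source made its calls: active means every replicate shows at least 50% inhibition; inconclusive means mean inhibition at least 50% but some replicate below; inactive means the rest.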 The list shows a part of the results.

Chains of the proteins cited; added tags and fusions are not shown. Lines headed by an entry give the natural chain unless they say otherwise; changes in a name come on top.
UniProt P43351: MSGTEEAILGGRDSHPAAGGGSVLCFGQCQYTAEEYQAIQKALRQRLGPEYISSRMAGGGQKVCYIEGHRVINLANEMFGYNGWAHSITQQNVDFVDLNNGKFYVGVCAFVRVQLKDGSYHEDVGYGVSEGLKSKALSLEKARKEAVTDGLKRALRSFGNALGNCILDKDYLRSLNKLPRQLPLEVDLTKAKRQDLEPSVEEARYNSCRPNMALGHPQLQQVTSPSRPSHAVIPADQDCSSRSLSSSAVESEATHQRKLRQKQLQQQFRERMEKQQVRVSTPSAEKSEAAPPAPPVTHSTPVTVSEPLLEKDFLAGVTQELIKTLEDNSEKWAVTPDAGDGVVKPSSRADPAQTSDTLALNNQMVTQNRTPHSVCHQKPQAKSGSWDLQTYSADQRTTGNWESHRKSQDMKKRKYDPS

The compounds below were run against DNA repair protein RAD52 homolog (Homo sapiens) (UniProt P43351) (assay: RAD52 ssDNA annealing inhibitors, primary screen, biochemical, FRET, single point (AID 651660;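 further: 0% = median of neutral control wells and 100% = median of positive control wells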)). Settings: Recombinant RAD52 ssDNA annealing, FRET fluorescence, 30 min; at 18.7 µM; active compounds read high.

inhibition, inactive:
COc1ccccc1-c1ccc(/C=C2/C=C(CC(C)C)OC2=O)o1 -105%
O=C(OCC1CCCN2CCCCC12)c1ccc2c(c1)OCO2 (stereo unspecified) -3.97%
CC1(C)C(=O)OC(/C=C\c2ccccc2)C(C)(C)C1=O (stereo unspecified) -5.97%
CCc1cc(C(N)=S)ccn1 2.48%
Cc1ccc2c(c1)c(=O)c1c3n2CCN(C(=O)CCl)C3CC1 (stereo unspecified) -8.58%
COc1cc(C(=O)OCCCN(C)C)cc(OC)c1OC 2.44%
COc1ccc2c(c1OC)C(C1c3c(cc4c(c3OC)OCO4)CCN1C)OC2=O (stereo unspecified) -13.9%
CCOc1ccc(CC2c3cc(OCC)c(OCC)cc3CCN2C(=O)CN2CCN(C)CC2)cc1OCC (stereo unspecified) -1.81%
COC(=O)c1[nH]c2ccc(F)cc2c1NC(=O)C1=COCCO1 0.192%
O=C(NCCO)c1ccc2[nH]c3ccccc3c2c1 1.28%
COc1ccc(CN2CCCC(C(=O)c3ccc(Cl)cc3)C2)cc1Cn1cccn1 (stereo unspecified) 1.02%
CC(=O)[C@@]1(O)CC[C@H]2[C@@H]3CCC4=CC(=O)CC[C@]4(C)[C@H]3[C@@H](O)C[C@@]21C 5.17%
COc1cc(C)nc(-n2nc(C)cc2OC)n1 5.35%
CS(=O)(=O)Nc1ccc([N+](=O)[O-])cc1Oc1ccccc1 -9.28%
Cc1coc2cc3oc(=O)c(CCC(=O)O)c(C)c3cc12 -8.02%
NS(=O)(=O)c1cc2c(cc1Cl)NCNS2(=O)=O -9.56%
CC(C)Cn1c(=S)[nH]c2cc(C(=O)O)ccc2c1=O -8.48%
NC(N)=N/N=C/c1c(Cl)cccc1Cl -8.31%
O=c1[nH]c(=O)n([C@H]2C[C@H](O)[C@@H](CO)O2)cc1F -5.36%
O=C(N1CCCC1)C12CC3CC(C1)CC(C(=O)N1CCCC1)(C3)C2 -7.19%
CS(=O)(=O)Nc1cccc(C(=O)CC2(O)C(=O)Nc3ccc(Br)cc32)c1 (stereo unspecified) 2.32%
COC1=CC(=O)CC(C)C12Oc1c(Cl)c(OC)cc(OC)c1C2=O (stereo unspecified) -4.02%
O=C(/C=C/c1c[nH]c2ccccc12)c1cccc2ccccc12 -25.7%
CCc1cc(=O)oc2cc(OCc3nn[nH]n3)ccc12 -15.2%
CC(=O)Oc1cc(C(C)C)c(OCCN(C)C)cc1C -0.396%
COc1ccc2cc[nH]c2c1 0.11%
CSc1ccc(/C=N/N2CCN(Cc3ccc(C)cc3C)CC2)cc1 -3.08%
C[C@H](NC(=O)Nc1ccccc1F)C(=O)O -8.47%
C[N+]12CCC(CC1)C(OC(=O)C(O)(c1ccccc1)c1ccccc1)C2 (stereo unspecified) 5.56%
CC(=O)N1CCn2c3c(c4cc(C)ccc42)CCCC31 (stereo unspecified) -75.6%
CC(C)OC(=O)CC12CN3CN(C1)CC(CC(=O)OC(C)C)(C3)C2=O -5.5%
Cc1ccc(P(=O)(CSC(=N)N)c2ccc(C)cc2)cc1 10.8%
CC1(C)CC(C(CC(=O)O)c2ccccc2)CCO1 (stereo unspecified) -2.72%
CC(=O)[C@H]1CC[C@H]2[C@@H]3CCC4=CC(=O)CC[C@]4(C)[C@H]3[C@H](O)C[C@]12C -1.41%
O=C(c1cc2cc(Br)ccc2o1)N1CCCC1 -8.1%
Cn1cc(/C=C/C(=O)c2ccccc2)c2ccccc21 -14.1%
COc1ccc(-c2c3c(=O)n(C)c(=O)n(C)c3cn2C2CCCCC2)cc1 -8.93%
C[C@H]1C[C@H]2[C@@H]3CCC4=CC(=O)C=C[C@]4(C)[C@@]3(Cl)[C@@H](O)C[C@]2(C)[C@@]1(O)C(=O)CO 1.9%
COc1cccc2cc(-c3ccccc3)c(=O)oc12 2.99%
COc1cc2nc(N3CCN(C(=O)C4CCCO4)CC3)nc(N)c2cc1OC (stereo unspecified) 44.1% and 30.3%
CS(=O)(=O)Oc1ccc2c(c1)O/C(=C\C=C\c1ccccc1)C2=O -125%
Nc1ncnc2c1ncn2C1OC(CO)C(O)C1O (stereo unspecified) -0.087%
CCCCC[C@H](O)/C=C/[C@@H]1[C@@H](C/C=C\CCCC(=O)O)[C@H]2CO[C@@H]1C2 -6.4%
COc1ccc(O)c(C(=O)/C=C/c2cc3ccccc3o2)c1 -5.81%
O=c1[nH]cc(F)c(=O)[nH]1 -2.47%
CCc1cc2c3c(c(=O)oc2cc1O)CCCC3 5.35%
CCNC(=S)N1CCN(CCN2C(=O)c3cccc4cccc(c34)C2=O)CC1 1.33%
CC(=O)c1cccc(NC(=O)N[C@@H](CC(C)C)C(=O)O)c1 0.413%
CC1(C(=O)O)CCC(C(=O)NC2CCCCCC2)C1(C)C (stereo unspecified) -2.34%
N/C(=N/OS(=O)(=O)c1ccc([N+](=O)[O-])cc1)c1ccncc1 2.58%
COc1cc2c(cc1O)CC[C@@H]1[C@@H]2CC[C@]2(C)[C@@H](O)CC[C@@H]12 2.28%
NS(=O)(=O)c1ccc(CCNC(=O)C2CCCN2C(=O)OCc2ccccc2)cc1 (stereo unspecified) 0.667%
Clc1ccccc1CN1CCc2sccc2C1 -5.04%
O=C(/C=C/c1ccccc1)NC(=O)c1ccccc1O -4.92%
C=CCNc1nc2c(c(=O)n(C)c(=O)n2C)n1CC(=C)C 3.2%
COc1ccc2nc(C)cc(Nc3ccccc3O)c2c1 35.3%
CN(C)CCCN1c2ccccc2CCc2ccc(Cl)cc21 16%
CC1(C)OC2OC(C(=O)N/N=C/c3ccccc3F)C3OC(C)(C)OC3C2O1 (stereo unspecified) -8.91%
O=C(c1ccc([N+](=O)[O-])cc1)N1CCSC1c1ccccc1Cl (stereo unspecified) 0.635%
O=C1CC(c2ccc(OCCCCCOc3ccc(C4CC(=O)NC4=O)cc3)cc2)C(=O)N1 (stereo unspecified) 0.883%
CC(C)CC(=O)NC(NC(=O)CC(C)C)c1cccc([N+](=O)[O-])c1 -6.94%
